# Source: article PMC8027484
# Protein sequences, listed by entry. Tags and fused reporters are not part of them.
# UniProt P55060: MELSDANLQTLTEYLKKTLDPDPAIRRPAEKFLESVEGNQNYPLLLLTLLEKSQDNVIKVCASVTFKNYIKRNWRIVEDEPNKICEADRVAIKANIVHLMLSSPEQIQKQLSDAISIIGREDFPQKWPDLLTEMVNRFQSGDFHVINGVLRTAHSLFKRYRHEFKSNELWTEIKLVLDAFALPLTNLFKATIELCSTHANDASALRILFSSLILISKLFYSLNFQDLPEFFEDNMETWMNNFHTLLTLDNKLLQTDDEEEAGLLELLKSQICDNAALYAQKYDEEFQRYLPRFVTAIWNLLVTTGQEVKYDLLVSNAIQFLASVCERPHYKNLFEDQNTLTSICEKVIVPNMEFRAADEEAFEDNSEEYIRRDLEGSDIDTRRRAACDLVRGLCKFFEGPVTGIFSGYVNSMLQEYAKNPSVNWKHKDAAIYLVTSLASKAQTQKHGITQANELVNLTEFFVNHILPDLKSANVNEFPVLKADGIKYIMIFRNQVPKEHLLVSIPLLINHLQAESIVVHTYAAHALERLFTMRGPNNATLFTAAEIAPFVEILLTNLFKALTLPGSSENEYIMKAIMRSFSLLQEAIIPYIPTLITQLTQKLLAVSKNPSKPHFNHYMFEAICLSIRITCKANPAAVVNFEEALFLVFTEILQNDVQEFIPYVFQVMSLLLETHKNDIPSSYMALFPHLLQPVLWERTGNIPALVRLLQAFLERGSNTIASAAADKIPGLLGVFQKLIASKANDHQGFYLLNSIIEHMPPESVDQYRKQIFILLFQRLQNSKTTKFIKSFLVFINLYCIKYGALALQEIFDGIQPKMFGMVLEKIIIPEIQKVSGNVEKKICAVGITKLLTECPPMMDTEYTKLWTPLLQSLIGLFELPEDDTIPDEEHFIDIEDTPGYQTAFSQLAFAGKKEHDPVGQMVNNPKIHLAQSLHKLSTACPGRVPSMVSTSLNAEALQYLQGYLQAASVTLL
# These are yes or no findings as the source states them, for the method shown. In cells and extracts the contact can be indirect. Some results given as binding are weak or reduced against the parent protein; the word gives no strength. Sequences can lack the tags named with a protein.
# Target: T1, 3×Flag-tagged-FLVCR1 (feline leukemia virus subgroup C receptor 1) (UniProt Q9Y5Y0)
# T1 sequence: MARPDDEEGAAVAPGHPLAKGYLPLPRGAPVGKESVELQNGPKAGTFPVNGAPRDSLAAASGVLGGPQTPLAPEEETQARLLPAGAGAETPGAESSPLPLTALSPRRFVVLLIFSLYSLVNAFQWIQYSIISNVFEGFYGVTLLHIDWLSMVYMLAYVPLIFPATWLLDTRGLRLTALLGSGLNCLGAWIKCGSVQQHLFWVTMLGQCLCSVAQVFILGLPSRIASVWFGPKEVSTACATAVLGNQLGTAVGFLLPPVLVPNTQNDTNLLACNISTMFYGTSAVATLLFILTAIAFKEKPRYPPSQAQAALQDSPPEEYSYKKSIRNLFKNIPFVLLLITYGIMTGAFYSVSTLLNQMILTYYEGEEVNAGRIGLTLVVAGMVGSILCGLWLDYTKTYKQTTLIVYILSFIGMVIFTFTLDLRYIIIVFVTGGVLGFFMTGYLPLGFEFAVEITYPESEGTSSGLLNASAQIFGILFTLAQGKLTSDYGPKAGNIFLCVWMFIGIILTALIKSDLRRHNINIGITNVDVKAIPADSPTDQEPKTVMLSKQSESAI
# Test: co-IP; KYSE-150 cells stably expressing 3×FLAG-FLVCR1; immunoprecipitation lysis buffer, anti-FLAG beads, western blot
substance,measurement,value
chromosome segregation 1–like (CSE1L) (from UniProt P55060 1-971),binding,binds
